The results in this text go back to article PMC6249220.

The experiment has as its target Flag-synpo-long (synaptopodin, long isoform). The experiment can be described thus: co-IP; HEK293T co-transfected with Flag-synpo-long and GFP-NEFH, 72 h; lysate in IP buffer (50 mM Tris pH 7.5, 150 mM NaCl, 1.0% Triton X100); anti-FLAG-M2 agarose beads overnight at 4 °C; blot with anti-GFP antibody.

No constants are given. Whether binding was seen depends on the method and setting. Binding seen in cells or lysates may run through a third protein. Binding calls can cover weak binding; strength is not graded here. Sequences can lack the tags named with a protein.

B1: GFP-NEFH (neurofilament heavy polypeptide) (protein, UniProt P19246 1-1090)
chain: MMSFGSADALLGAPFAPLHGGGSLHYSLSRKAGPGGTRSAAGSSSGFHSWARTSVSSVSASPSRFRGAASSTDSLDTLSNGPEGCVVAAVAARSEKEQLQALNDRFAGYIDKVRQLEAHNRSLEGEAAALRQQQAGRAAMGELYEREVREMRGAVLRLGAARGQLRLEQEHLLEDIAHVRQRLDEEARQREEAEAAARALARFAQEAEAARVELQKKAQALQEECGYLRRHHQEEVGELLGQIQGCGAAQAQAQAEARDALKCDVTSALREIRAQLEGHAVQSTLQSEEWFRVRLDRLSEAAKVNTDAMRSAQEEITEYRRQLQARTTELEALKSTKESLERQRSELEDRHQADIASYQDAIQQLDSELRNTKWEMAAQLREYQDLLNVKMALDIEIAAYRKLLEGEECRIGFGPSPFSLTEGLPKIPSISTHIKVKSEEMIKVVEKSEKETVIVEGQTEEIRVTEGVTEEEDKEAQGQEGEEAEEGEEKEEEEGAAATSPPAEEAASPEKETKSRVKEEAKSPGEAKSPGEAKSPAEAKSPGEAKSPGEAKSPGEAKSPAEPKSPAEPKSPAEAKSPAEPKSPATVKSPGEAKSPSEAKSPAEAKSPAEAKSPAEAKSPAEAKSPAEAKSPAEAKSPATVKSPGEAKSPSEAKSPAEAKSPAEAKSPAEAKSPAEVKSPGEAKSPAEPKSPAEAKSPAEVKSPAEAKSPAEVKSPGEAKSPAAVKSPAEAKSPAAVKSPGEAKSPGEAKSPAEAKSPAEAKSPIEVKSPEKAKTPVKEGAKSPAEAKSPEKAKSPVKEDIKPPAEAKSPEKAKSPVKEGAKPPEKAKPLDVKSPEAQTPVQEEAKHPTDIRPPEQVKSPAKEKAKSPEKEEAKTSEKVAPKKEEVKSPVKEEVKAKEPPKKVEEEKTLPTPKTEAKESKKDEAPKEAPKPKVEEKKETPTEKPKDSTAEAKKEEAGEKKKAVASEEETPAKLGVKEEAKPKEKTETTKTEAEDTKAKEPSKPTETEKPKKEEMPAAPEKKDTKEEKTTESRKPEEKPKMEAKVKEDDKSLSKEPSKPKTEKAEKSSSTDQKESQPPEKTTEDKATKGEK
Turning to B1, the binding entry is given as “binds”.
